{"source": "patent US10544186B2", "about": "“Process for the synthesis of amide bonds with the aid of novel catalysts” (Merck Patent GmbH, priority 2016, dated 2020)", "experiment": "Activation of Z-Aib-OH by the amide linking reagents (NMR conversion to active ester)", "settings": "Z-Aib-OH, THF, TMP", "data": [{"substance": "(Benzotriazol-1-yloxy)tris(pyrrolidino)phosphonium tris(pentafluoroethyl)trifluorophosphate [PyBOP-FAP]", "values": [{"measurement": "acceleration of the activation of the acid compared with the BF4/PF6 analogue", "value": "less pronounced"}]}]}
